Reference: patent US12497392B2, “EP300/CBP inhibitor” (HINOVA PHARMACEUTICALS INC., priority 2019, dated 2025)

By UniProt entry, the sequences of proteins in these tests, tags left out. Residues count along the entry.
UniProt Q09472, 1049-1156 limits assumed: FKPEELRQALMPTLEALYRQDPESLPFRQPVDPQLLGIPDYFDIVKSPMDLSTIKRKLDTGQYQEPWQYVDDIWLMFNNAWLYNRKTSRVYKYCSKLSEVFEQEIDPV
UniProt Q92793, 1085-1192 limits assumed: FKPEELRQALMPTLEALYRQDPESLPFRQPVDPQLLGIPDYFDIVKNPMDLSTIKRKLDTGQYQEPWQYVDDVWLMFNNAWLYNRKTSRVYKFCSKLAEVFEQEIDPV

Experiments:
EP300 BRD = EP300 BRD (Homo sapiens (Human), UniProt Q09472); test: EP300 AlphaScreen bromodomain (BRD) binding test; conditions: read-out: EP300 BRD IC50
CBP BRD = CBP BRD (Homo sapiens (Human), UniProt Q92793); test: CBP AlphaScreen bromodomain (BRD) binding test; conditions: read-out: CBP BRD IC50

SMILES: [2H]C([2H])([2H])O[C@H]1CC[C@H](n2c([C@@H]3CCOC(=O)N3c3ccc(F)c(F)c3)nc3cc(-c4c(C)noc4C)ccc32)CC1
- IC50 (EP300 BRD): ≤ 3 nM and 0.8 nM
- IC50 (CBP BRD): ≤ 5 nM and 1.2 nM

The source holds more than one record for some entries. This list holds those alone. The source may hold further records. The records of an entry do not match, cause unknown; they may come from other doses, times, organisms or constructs than stated.
